PubChem BioAssay AID743454 | Peter MacCallum Cancer Centre – 2014
Here is a random part of about 18,000 reagents tested. 450 of all reagents (2.5%) count as active. 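Single biological run; no consistent viability z cut-off exists, so the class columns, not z-scores, define the calls.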 Entries without a mark were called inactive. Reagent sequences are not shown.

Test: 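Genes whose loss kills vorinostat-resistant colon cancer cells under vorinostat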 (primary screen)
Cells: human HCT116-VR colon cancer cells, selected for vorinostat resistance
Reagents: siRNA pool against human genes, 40 nM siRNA pool
Time to read-out: vorinostat for 24 h, read-out about 72 h after transfection
Conditions: vorinostat at 2.5 µM final
Measurement: 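Cell viability by CellTiter-Fluor and caspase 3/7 activity by luminescence, each scaled to mock wells per plate, duplicates averaged, then robust z-scored over all plates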
Reading the numbers: viability robust z-score: higher = more viable cells than screen typical; caspase robust z-score: higher = more caspase 3/7 activity than screen typical
Call rule: 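a knock-down is a hit when classed RV1 or RV2 for lowered viability, or CA1 or CA2 for caspase activation; those lethal without drug were dropped; hits were retested singly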

KANSL2 (KAT8 regulatory NSL complex subunit 2) scored viability hit class no change; caspase hit class no change; viability robust z-score 0.49; caspase robust z-score -0.6. For ZNF33A (zinc finger protein 33A) the deposit lists viability hit class no change; caspase hit class no change; viability robust z-score 0.68; caspase robust z-score -0.02. For PNMA8B (PNMA family member 8B), the values are viability hit class no change; caspase hit class no change; viability robust z-score -1.05; caspase robust z-score 0.32. Knock-down of SP6 (Sp6 transcription factor) came out at: viability hit class no change; caspase hit class no change; viability robust z-score -1.25; caspase robust z-score -0.21. Depletion of SERPINF2 (serpin family F member 2) came out at: viability hit class no change; caspase hit class no change; viability robust z-score -1.04; caspase robust z-score 2.6. Depletion of CCDC88C (coiled-coil and HOOK domain protein 88C) gave: viability hit class no change; caspase hit class no change; viability robust z-score 0.34; caspase robust z-score 0.91.

Depletion of EMC2 (ER membrane protein complex subunit 2) gave: viability hit class no change; caspase hit class no change; viability robust z-score -0.34; caspase robust z-score -0.02. For OR6N2 (olfactory receptor family 6 subfamily N member 2), the entry reads viability hit class no change; caspase hit class no change; viability robust z-score 0.26; caspase robust z-score 0.45. Silencing of THAP12 (THAP domain containing 12) resulted in: viability hit class no change; caspase hit class no change; viability robust z-score 1.06; caspase robust z-score -0.8. With knock-down of HSF2BP (heat shock transcription factor 2 binding protein), the record shows viability hit class no change; caspase hit class no change; viability robust z-score 1.97; caspase robust z-score 1.31. For SLC37A1 the deposit lists viability hit class no change; caspase hit class no change; viability robust z-score 1.27; caspase robust z-score 2.34. For MS4A2 (membrane spanning 4-domains A2) the deposit lists viability hit class no change; caspase hit class no change; viability robust z-score -1.09; caspase robust z-score 0.48.

MUC2 (mucin 2, oligomeric mucus/gel-forming) scored viability hit class no change; caspase hit class no change; viability robust z-score -1.12; caspase robust z-score -0.24. GPR156 (G protein-coupled receptor 156) scored viability hit class no change; caspase hit class no change; viability robust z-score -0.21; caspase robust z-score -1.24. After knock-down of ARL10 (ARF like GTPase 10), the record shows viability hit class no change; caspase hit class no change; viability robust z-score -0.24; caspase robust z-score -0.94. Depletion of MYT1L (myelin transcription factor 1 like) gave: viability hit class no change; caspase hit class no change; viability robust z-score -0.12; caspase robust z-score -0.78. KIR2DL5B gave viability hit class no change; caspase hit class no change; viability robust z-score -1.17; caspase robust z-score -0.21. SLC7A6 showed viability hit class no change; caspase hit class no change; viability robust z-score -1.21; caspase robust z-score 0.9.

With knock-down of LANCL1 (LanC like glutathione S-transferase 1), the record shows viability hit class no change; caspase hit class no change; viability robust z-score 0.42; caspase robust z-score -0.68. With knock-down of EXPH5 (exophilin 5), the record shows viability hit class no change; caspase hit class no change; viability robust z-score -1.25; caspase robust z-score -1.04. CHI3L2 (chitinase 3 like 2) showed viability hit class no change; caspase hit class no change; viability robust z-score 1.21; caspase robust z-score -0.62.
